Reference: US20240109852A1, “Ferroptosis-HDAC Inhibitor Hybrid Anticancer Agents” (The University of Toledo, priority 2022, published 2024)

Test system: NCI-H522 human lung cancer cells
Experiment: Cell viability assay (methylene blue staining), NCI-H522
Assay type: cell-based
Settings: 72 h, read-out: IC50 ± SD (n = 3) on NCI-H522 cell line, three days after treatment

O=C(CCCCCCC(=O)Nc1ccccc1)NO [SAHA]
IC50: 1460 ± 100 nM
